PubChem BioAssay AID1259424 | University of Nebraska Medical Center | 2018

Aim: 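Rank knockdowns across the genome by resemblance to the KSR1 depletion profile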 (primary screen)
Cell system: human HCT116 colon cancer cells
Reagents: siRNA pool against human genes, 50 nM
Detection: 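Six signature mRNAs by branched-DNA multiplex assay, scaled to two housekeeping genes and non-targeting median, log2; matched to mean KSR1 knockdown profile by Pearson correlation and euclidean distance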
Reading the numbers: mean correlation with KSR1 profile: higher = expression change more like KSR1 knockdown; mean distance from KSR1 profile: higher = expression change less like KSR1 knockdown
The whole screen tested about 14,000 reagents; shown is a random part of them. 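Higher correlation or smaller distance means closer resemblance to KSR1 loss; control wells, including KSR1 knockdowns, recur on many plates.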 Not all columns of the deposit are shown. Not given: the time to read-out.

{"gene knocked down": "LCN2 (lipocalin 2)", "mean correlation with KSR1 profile": -0.693, "mean distance from KSR1 profile": 1.71}
{"gene knocked down": "MIS12 (MIS12 kinetochore complex component)", "mean correlation with KSR1 profile": -0.089, "mean distance from KSR1 profile": 2.22}
{"gene knocked down": "ERN2 (endoplasmic reticulum to nucleus signaling 2)", "mean correlation with KSR1 profile": -0.169, "mean distance from KSR1 profile": 1.55}
{"gene knocked down": "MT-CO1 (mitochondrially encoded cytochrome c oxidase I)", "mean correlation with KSR1 profile": 0.222, "mean distance from KSR1 profile": 1.36}
{"gene knocked down": "GBA2 (glucosylceramidase beta 2)", "mean correlation with KSR1 profile": 0.0402, "mean distance from KSR1 profile": 2.45}
{"gene knocked down": "ERC2 (ELKS/RAB6-interacting/CAST family member 2)", "mean correlation with KSR1 profile": -0.275, "mean distance from KSR1 profile": 2.96}
{"gene knocked down": "PRAF2 (PRA1 domain family member 2)", "mean correlation with KSR1 profile": 0.351, "mean distance from KSR1 profile": 4.18}
{"gene knocked down": "AFG2B (AAA ATPase AFG2B)", "mean correlation with KSR1 profile": 0.277, "mean distance from KSR1 profile": 3.88}
{"gene knocked down": "PTPN6 (protein tyrosine phosphatase non-receptor type 6)", "mean correlation with KSR1 profile": 0.481, "mean distance from KSR1 profile": 1.7}
{"gene knocked down": "PRPF4 (pre-mRNA splicing tri-snRNP complex factor PRPF4)", "mean correlation with KSR1 profile": 0.252, "mean distance from KSR1 profile": 1.74}
{"gene knocked down": "OSGEP (O-sialoglycoprotein endopeptidase)", "mean correlation with KSR1 profile": -0.432, "mean distance from KSR1 profile": 2.11}
{"gene knocked down": "TAF5 (TATA-box binding protein associated factor 5)", "mean correlation with KSR1 profile": -0.211, "mean distance from KSR1 profile": 2.67}
{"gene knocked down": "IL4 (interleukin 4)", "mean correlation with KSR1 profile": -0.268, "mean distance from KSR1 profile": 1.49}
{"gene knocked down": "ATP13A3 (ATPase 13A3)", "mean correlation with KSR1 profile": -0.277, "mean distance from KSR1 profile": 3.17}
{"gene knocked down": "NEDD9", "mean correlation with KSR1 profile": -0.0871, "mean distance from KSR1 profile": 2.02}
{"gene knocked down": "MAGEC2 (MAGE family member C2)", "mean correlation with KSR1 profile": -0.134, "mean distance from KSR1 profile": 1.72}
{"gene knocked down": "SYN2 (synapsin II)", "mean correlation with KSR1 profile": -0.073, "mean distance from KSR1 profile": 1.22}
{"gene knocked down": "PHKG2 (phosphorylase kinase catalytic subunit gamma 2)", "mean correlation with KSR1 profile": 0.463, "mean distance from KSR1 profile": 1.7}
{"gene knocked down": "PIGC (phosphatidylinositol glycan anchor biosynthesis class C)", "mean correlation with KSR1 profile": 0.126, "mean distance from KSR1 profile": 1.45}
{"gene knocked down": "PDCD1 (programmed cell death 1)", "mean correlation with KSR1 profile": -0.565, "mean distance from KSR1 profile": 5.18}
{"gene knocked down": "SRL (sarcalumenin)", "mean correlation with KSR1 profile": -0.426, "mean distance from KSR1 profile": 2.02}
{"gene knocked down": "NT5C2 (5'-nucleotidase, cytosolic II)", "mean correlation with KSR1 profile": 0.175, "mean distance from KSR1 profile": 1.54}
{"gene knocked down": "ZNF695 (zinc finger protein 695)", "mean correlation with KSR1 profile": -0.575, "mean distance from KSR1 profile": 2.85}
{"gene knocked down": "MRPL13 (mitochondrial ribosomal protein L13)", "mean correlation with KSR1 profile": 0.0376, "mean distance from KSR1 profile": 1.63}
{"gene knocked down": "ALG2 (ALG2 alpha-1,3/1,6-mannosyltransferase)", "mean correlation with KSR1 profile": 0.34, "mean distance from KSR1 profile": 1.76}
{"gene knocked down": "TMEM63A (transmembrane protein 63A)", "mean correlation with KSR1 profile": -0.934, "mean distance from KSR1 profile": 1.62}
{"gene knocked down": "IL10RB (interleukin 10 receptor subunit beta)", "mean correlation with KSR1 profile": -0.684, "mean distance from KSR1 profile": 1.93}
{"gene knocked down": "TMPRSS3 (transmembrane serine protease 3)", "mean correlation with KSR1 profile": 0.0666, "mean distance from KSR1 profile": 1.62}
{"gene knocked down": "GOLGA5 (golgin A5)", "mean correlation with KSR1 profile": 0.448, "mean distance from KSR1 profile": 1.96}
{"gene knocked down": "IGFBP7 (insulin like growth factor binding protein 7)", "mean correlation with KSR1 profile": 0.144, "mean distance from KSR1 profile": 1.49}
{"gene knocked down": "STRADA (STE20 related adaptor alpha)", "mean correlation with KSR1 profile": -0.178, "mean distance from KSR1 profile": 2.34}
{"gene knocked down": "CRX (cone-rod homeobox)", "mean correlation with KSR1 profile": 0.0465, "mean distance from KSR1 profile": 3.43}
{"gene knocked down": "ADRA2B (adrenoceptor alpha 2B)", "mean correlation with KSR1 profile": 0.863, "mean distance from KSR1 profile": 3.43}
{"gene knocked down": "RECQL5 (RecQ like helicase 5)", "mean correlation with KSR1 profile": 0.317, "mean distance from KSR1 profile": 1.7}
{"gene knocked down": "VMA22 (vacuolar ATPase assembly factor VMA22)", "mean correlation with KSR1 profile": 0.494, "mean distance from KSR1 profile": 1.57}
{"gene knocked down": "EDNRA (endothelin receptor type A)", "mean correlation with KSR1 profile": -0.231, "mean distance from KSR1 profile": 1.98}
